Experimental data published in PMC10056566.

Protein sequences, listed by entry. Tags and fused reporters are not part of them. Residues count along the entry.
UniProt Q9NZQ7, 19-290: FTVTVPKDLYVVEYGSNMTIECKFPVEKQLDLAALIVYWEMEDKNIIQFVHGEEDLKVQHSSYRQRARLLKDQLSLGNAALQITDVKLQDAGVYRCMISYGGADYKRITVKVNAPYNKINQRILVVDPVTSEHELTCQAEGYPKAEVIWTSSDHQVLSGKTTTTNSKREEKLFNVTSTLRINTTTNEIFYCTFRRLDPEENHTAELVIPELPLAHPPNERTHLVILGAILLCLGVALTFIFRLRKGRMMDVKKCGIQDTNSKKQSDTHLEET

Molecular target: PD-L1 on MDA-MB-231 cells (UniProt Q9NZQ7)
Assay: fluorescence microscopy of cells
Conditions: aptamer on coumarin-6 albumin nanoparticle, 5' thiol, T10 spacer, conjugated to BSA by Sulfo-SMCC, multivalent nanoparticle, protein on the cell surface, single-stranded DNA

**Q.** Does “TTTTTTTTTTACGGGCCACATCAACTCATTGATAGACAATGCGTCCACTGCCCGT [PD-L1 aptamer on albumin nanoparticle (PDL1-NP-cou6)]” bind?
**A.** Result: binds

The exact form of at least one protein or probe is not confirmed. At least one result comes from cells or an extract, where the contact may be indirect.
